# Measurements as given in PubChem BioAssay AID445 (National Center for Advancing Translational Sciences (NCATS), 2006).
# Some of the results follow. Shown are side measurements of this screen, not its main read-out; they come without a call. Compounds called inactive in the main read-out are mostly missing here. Words in brackets tell the shape of the fitted curve; partial curves, single points and poor fits give uncertain potencies.
# Assay: IkB Signaling
# Conditions: ABC-DLBCL IkBa-CBG/CBR dual luciferase ratio (green luciferase fused to IkBa over red control in OCI-Ly3 lymphoma cells), 4 h
# How it was run: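 Curves were fitted separately to fusion (green), unfused (red) and ratio luminescence, then classed by r2, magnitude and activity. Cells: OCI-Ly3, 4 h compound plus doxycycline at 37C; 10 uM MG-132 defined full response.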
# [1] = measured here: control luc red channel unless noted
# [2] = measured here: IkB-luc green channel
# [3] = measured here: control luc red channel
structure (smiles),measurement,setting,value
O=C(Nc1cccc2cccnc12)c1cccc2c(Br)cccc12,AC50,[1],"0.316 µM [rising, full curve]"
CCc1cc2c(cc3c(=O)n(CC(=O)NC4CCC(C)CC4)nc(CC)n32)s1 (stereo not drawn),AC50,[1],"5.01 µM [rising, single point]"
COc1ccc(-n2c(Cc3ccccc3)nnc2SCc2nc(-c3ccccc3C)no2)cc1,AC50,[1],"25.1 µM [falling, single point]"
Cc1ccc2onc(CNC(=O)N(C)Cc3ccccc3)c2c1,AC50,[1],"39.8 µM [rising, partial curve, poor fit]"
CCOC(=O)c1ccc(NC(=O)c2cccc3c(=O)c4c([nH]c23)CCCC4)cc1,AC50,[1],"0.316 µM [rising, full curve]"
O=C1c2[nH]nc(-c3ccccc3O)c2C(c2cccc(Br)c2)N1Cc1ccncc1 (stereo not drawn),AC50,[1],"25.1 µM [falling, partial curve]"
O=C(Nc1ccc(Br)cc1F)c1ccc2nc(CCc3ccccc3)oc2c1,AC50,[1],"25.1 µM [falling, single point]"
Cc1cc2cc(CN(Cc3ccc4c(c3)OCO4)C(=O)c3ccco3)c(=O)[nH]c2cc1C,AC50,[2],"31.6 µM [falling, partial curve]"
same,AC50,[3],"20 µM [falling, partial curve]"
CCCN(CCC)c1nc(NC2CCN(C(=O)OCC)CC2)nc(OC)n1,AC50,[1],"12.6 µM [falling, partial curve]"
CC1N=C2c3ccccc3N=C(SCC(=O)NCc3ccc(Cl)cc3)N2C1=O (stereo not drawn),AC50,[1],"10 µM [falling, partial curve]"
COc1cccc(-c2n[nH]c3c2C(c2cccc(O)c2)N(C)C3=O)c1 (stereo not drawn),AC50,[1],"20 µM [falling, partial curve]"
Cc1cc(C)c2ccc(N)nc2c1O,AC50,[2],"15.8 µM [rising, single point]"
same,AC50,[3],"6.31 µM [rising, single point]"
CCOc1cc(C)c(Cl)cc1S(=O)(=O)NCc1ccc2c(c1)OCO2,AC50,[1],"15.8 µM [falling, partial curve]"
O=C(c1ccccc1C(=O)N1CCN(c2ccccc2F)CC1)N1CCN(c2ccccc2F)CC1,AC50,[1],"3.98 µM [falling, full curve]"
COc1ccc(CNC(=O)c2cnn(-c3ccc(OC)cc3)c2C2CCN(C(=O)OC(C)(C)C)CC2)cc1,AC50,[1],"39.8 µM [falling, single point]"
Cc1c2cnn(-c3ccccc3)c(=O)c2c(C)n1CC(=O)N1CCN(c2cccc(Cl)c2)CC1,AC50,[1],"25.1 µM [falling, partial curve]"
Cc1cc(C)c(S(=O)(=O)Nc2ccc(-c3ccc(N4CCCCC4)nn3)cc2)c(C)c1,AC50,[1],"6.31 µM [falling, full curve]"
COCCCNC(=O)CN1C(=O)COc2ccc(S(=O)(=O)N3CCOCC3)cc21,AC50,[1],"25.1 µM [falling, partial curve, poor fit]"
COc1cc(C2C(C#N)=C(C)NC3=C2C(=O)c2ccccc23)cc(OC)c1OC (stereo not drawn),AC50,[2],"3.16 µM [rising, full curve, poor fit]"
same,AC50,[3],"0.794 µM [rising, full curve, poor fit]"
COC(=O)CSCc1nc(-c2ccc(C(=O)OC)cc2)oc1C,AC50,[1],"12.6 µM [falling, partial curve]"
O=C(CCNS(=O)(=O)c1cccc2nonc12)Nc1ccc(F)cc1,AC50,[1],"12.6 µM [falling, partial curve]"
COC(=O)c1cccc(Nc2c(-c3ccc(O)cc3)nc3nc[nH]n23)c1,AC50,[2],"31.6 µM [rising, partial curve]"
same,AC50,[3],"31.6 µM [rising, partial curve]"
COCCn1c(=NC(=O)CSC(C)=O)sc2cc(F)ccc21,AC50,[1],"25.1 µM [falling, single point]"
CCOC(=O)c1cc(-c2ccccc2)n(-c2cccc(C(=O)NC(C)CC)c2)c1C (stereo not drawn),AC50,[1],"31.6 µM [falling, single point]"
Cc1ccc(N(C)S(=O)(=O)c2ccc(-c3cnc(C4CC4)o3)cc2)cc1,AC50,[1],"3.16 µM [rising, single point]"
CCn1c(CN2CCCCC2)nc2cc(NC(=O)COc3cc(C)ccc3C(C)C)ccc21,AC50,[1],"12.6 µM [falling, partial curve]"
CC(C)Oc1ccc(CNC(=O)c2ccc3c(c2)N(Cc2ccc(F)cc2)CCS3)cc1,AC50,[1],"20 µM [falling, partial curve]"
Cc1c(-c2ccc(Cl)cc2)c(=O)oc2c(CN3CCN(C)CC3)c(O)ccc12,AC50,[1],"6.31 µM [falling, partial curve]"
O=C(O)CCCCCN=C1CCc2ccccc2N1,AC50,[1],"31.6 µM [falling, single point]"
COc1cccc2sc(N(Cc3cccnc3)C(=O)C3CCCCC3)nc12,AC50,[1],"0.631 µM [falling, full curve]"
CC1CCc2c(sc3nc(-c4cc5ccccc5oc4=O)nc(Cl)c23)C1 (stereo not drawn),AC50,[1],"5.01 µM [rising, partial curve]"
O=C(CSc1nnc(-c2cnccn2)n1Cc1ccco1)c1ccc(Cl)c(Cl)c1,AC50,[1],"7.94 µM [falling, partial curve]"
O=S(=O)(c1cccc2cnccc12)N1CCCNCC1,AC50,[1],"15.8 µM [falling, partial curve]"
CC(C)c1nn2c(=O)cc(COC(=O)c3cccc(NC(=O)c4ccccc4F)c3)nc2s1,AC50,[1],"3.98 µM [falling, partial curve]"
O=C(O)CSc1ccc2ccccc2n1,AC50,[1],"7.94 µM [falling, partial curve] [measured here: IkB-luc green channel]"
O=C(Nc1cccc(Cl)c1)C(Cc1ccccc1)n1cccc1 (stereo not drawn),AC50,[1],"39.8 µM [falling, single point]"
CCOC(=O)N1CCN(C(=O)Cn2nc(-c3ccc(Cl)cc3)ccc2=O)CC1,AC50,[1],"25.1 µM [falling, partial curve]"
CCOc1ccc(CCNC(=O)CCCc2nnc3n(CCCOC)c(=O)c4sccc4n23)cc1,AC50,[1],"39.8 µM [falling, single point]"
CC(=O)C1=C(C)NC(SCC(=O)c2ccccc2)=C(C#N)C1c1ccco1 (stereo not drawn),AC50,[1],"31.6 µM [falling, single point]"

# Random excerpt: three entries already listed
structure (smiles),measurement,setting,value
CC1CCc2c(sc3nc(-c4cc5ccccc5oc4=O)nc(Cl)c23)C1 (stereo not drawn),AC50,[1],"5.01 µM [rising, partial curve]"
Cc1c(-c2ccc(Cl)cc2)c(=O)oc2c(CN3CCN(C)CC3)c(O)ccc12,AC50,[1],"6.31 µM [falling, partial curve]"
Cc1cc2cc(CN(Cc3ccc4c(c3)OCO4)C(=O)c3ccco3)c(=O)[nH]c2cc1C,AC50,[3],"20 µM [falling, partial curve]"
